{"source": "PubChem BioAssay AID1259405 | NCATS | 2018", "screen": "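Mouse-designed siRNAs used to find CHO productivity engineering targets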 (primary screen)", "cells": "Chinese hamster CHO-K1 ovary cells with stable secreted eGFP expression", "reagent": "single siRNA against mouse genes, 0.8 pmol siRNA per well (2 µl of 400 nM stock)", "time to read-out": "3 days", "measured": "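Percent of the per-plate non-targeting control median for intracellular GFP per well by laser scanning cytometry and for cell viability by ATP luminescence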", "direction": "GFP, % of control: higher = more GFP per well, higher productivity; viability (ATP), % of control: higher = more viable cells (more ATP)", "hit rule": "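a knock-down is called active if GFP reaches 120% or more of non-targeting control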", "note": "Shown is a random part of about 50,000 reagents. About 4,000 of them (8%) were called active. 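Mouse siRNA library applied to hamster cells; one well for each siRNA.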 Entries without a mark were called inactive. Reagents against one gene are numbered here."}
{"target gene": "Khk", "siRNA no.": 1, "GFP, % of control": 76.3, "viability (ATP), % of control": 85.9}
{"target gene": "Khk", "siRNA no.": 2, "GFP, % of control": 78.5, "viability (ATP), % of control": 62.2}
{"target gene": "Khk", "siRNA no.": 3, "GFP, % of control": 77.9, "viability (ATP), % of control": 86.4}
{"target gene": "Cpeb4", "siRNA no.": 1, "GFP, % of control": 85.8, "viability (ATP), % of control": 82.9}
{"target gene": "Cpeb4", "siRNA no.": 2, "GFP, % of control": 94.6, "viability (ATP), % of control": 67.2}
{"target gene": "Cpeb4", "siRNA no.": 3, "GFP, % of control": 69.5, "viability (ATP), % of control": 75.2}
{"target gene": "Ccdc126", "siRNA no.": 1, "GFP, % of control": "123 (active)", "viability (ATP), % of control": 90.8}
{"target gene": "Ccdc126", "siRNA no.": 2, "GFP, % of control": 66.7, "viability (ATP), % of control": 52.1}
{"target gene": "Ccdc126", "siRNA no.": 3, "GFP, % of control": 62.5, "viability (ATP), % of control": 67.6}
{"target gene": "Nckap1l", "siRNA no.": 1, "GFP, % of control": 64.7, "viability (ATP), % of control": 68.3}
{"target gene": "Nckap1l", "siRNA no.": 2, "GFP, % of control": 68, "viability (ATP), % of control": 82.6}
{"target gene": "Nckap1l", "siRNA no.": 3, "GFP, % of control": 118, "viability (ATP), % of control": 98.8}
{"target gene": "Hic2", "siRNA no.": 1, "GFP, % of control": 84.1, "viability (ATP), % of control": 62.6}
{"target gene": "Hic2", "siRNA no.": 2, "GFP, % of control": 95.9, "viability (ATP), % of control": 51.8}
{"target gene": "Hic2", "siRNA no.": 3, "GFP, % of control": 79, "viability (ATP), % of control": 76.2}
{"target gene": "Trmt10b", "siRNA no.": 1, "GFP, % of control": 59.6, "viability (ATP), % of control": 83.6}
{"target gene": "Trmt10b", "siRNA no.": 2, "GFP, % of control": 101, "viability (ATP), % of control": 113}
{"target gene": "Tas2r105", "siRNA no.": 1, "GFP, % of control": 63.9, "viability (ATP), % of control": 67.8}
{"target gene": "Tas2r105", "siRNA no.": 2, "GFP, % of control": 62.4, "viability (ATP), % of control": 75.9}
{"target gene": "Tas2r105", "siRNA no.": 3, "GFP, % of control": 89.5, "viability (ATP), % of control": 99.3}

Copied from above for reference:
{"target gene": "Ccdc126", "siRNA no.": 3, "GFP, % of control": 62.5, "viability (ATP), % of control": 67.6}
{"target gene": "Nckap1l", "siRNA no.": 1, "GFP, % of control": 64.7, "viability (ATP), % of control": 68.3}
{"target gene": "Nckap1l", "siRNA no.": 2, "GFP, % of control": 68, "viability (ATP), % of control": 82.6}
{"target gene": "Nckap1l", "siRNA no.": 3, "GFP, % of control": 118, "viability (ATP), % of control": 98.8}
{"target gene": "Hic2", "siRNA no.": 1, "GFP, % of control": 84.1, "viability (ATP), % of control": 62.6}
{"target gene": "Hic2", "siRNA no.": 2, "GFP, % of control": 95.9, "viability (ATP), % of control": 51.8}

Additional reagents:
{"target gene": "Rhbdl1", "siRNA no.": 1, "GFP, % of control": 64.3, "viability (ATP), % of control": 77.5}
{"target gene": "Rhbdl1", "siRNA no.": 2, "GFP, % of control": 74.5, "viability (ATP), % of control": 25.1}
{"target gene": "Rhbdl1", "siRNA no.": 3, "GFP, % of control": 55.8, "viability (ATP), % of control": 58.7}
{"target gene": "Zmym3", "siRNA no.": 1, "GFP, % of control": "139 (active)", "viability (ATP), % of control": 61.2}
{"target gene": "Zmym3", "siRNA no.": 2, "GFP, % of control": 81.8, "viability (ATP), % of control": 73.1}
{"target gene": "Zmym3", "siRNA no.": 3, "GFP, % of control": 96, "viability (ATP), % of control": 113}
{"target gene": "Tssk1", "siRNA no.": 1, "GFP, % of control": 66.3, "viability (ATP), % of control": 52.5}
{"target gene": "Tssk4", "siRNA no.": 1, "GFP, % of control": 79.9, "viability (ATP), % of control": 84.2}
{"target gene": "Vmn1r84", "siRNA no.": 1, "GFP, % of control": 49.6, "viability (ATP), % of control": 57.5}
{"target gene": "Vmn1r84", "siRNA no.": 2, "GFP, % of control": 72.7, "viability (ATP), % of control": 79.5}
{"target gene": "Vmn1r84", "siRNA no.": 3, "GFP, % of control": 42.9, "viability (ATP), % of control": 32.6}
{"target gene": "Npvf", "siRNA no.": 1, "GFP, % of control": 66.4, "viability (ATP), % of control": 60.3}
{"target gene": "Npvf", "siRNA no.": 2, "GFP, % of control": 80.3, "viability (ATP), % of control": 72.1}
{"target gene": "Npvf", "siRNA no.": 3, "GFP, % of control": 53.6, "viability (ATP), % of control": 54.6}
{"target gene": "Smtn", "siRNA no.": 1, "GFP, % of control": 109, "viability (ATP), % of control": 78.2}
{"target gene": "Smtn", "siRNA no.": 2, "GFP, % of control": 53.6, "viability (ATP), % of control": 75.4}
{"target gene": "Smtn", "siRNA no.": 3, "GFP, % of control": 61.6, "viability (ATP), % of control": 78.7}
{"target gene": "Tnfsf18", "siRNA no.": 1, "GFP, % of control": 69.5, "viability (ATP), % of control": 61.8}
{"target gene": "Tnfsf18", "siRNA no.": 2, "GFP, % of control": 66.5, "viability (ATP), % of control": 53.7}
{"target gene": "Tnfsf18", "siRNA no.": 3, "GFP, % of control": 60.8, "viability (ATP), % of control": 63.7}
